Experimental data: PubChem BioAssay AID1259261 (Sanger Institute, 2017)
Screen: 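Find kinase silencing that cuts viability alone or with anchor drugs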 (primary screen). System: HCC2998 human colorectal cancer cells. Reagents: siRNA pool against human genes. Treatment: anchor drugs BYL719 1 µM, cetuximab 5 µg/ml or trametinib 10 nM, each compared with DMSO vehicle. Measured: 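Viability as fraction of non-targeting control plus robust z-score without drug; synergy scores compare knock-down plus drug against each alone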. Scale: viability z-score, knock-down alone: higher = more viable cells than controls. Rule for the call: 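a knock-down is called essential if its robust z-score without drug is under -3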. Meaning of the calls: active = essential; inactive = no change.
This is one part, drawn at random, of 794 reagents. Over the whole deposit, 10 (1.3%) were called active. 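Calls reflect knock-down alone without drug; synergy scores with BYL719, cetuximab or trametinib do not affect calls.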 A number with no mark means an inactive call. Further read-outs or replicates are left out here. No sequences are given here. Not given: the amount of reagent, the time to read-out.

For NR4A2, what does the deposit list?
viability z-score, knock-down alone: -1.27

With PTPRU, what does the deposit list?
viability z-score, knock-down alone: -0.144

With MKNK2, what does the deposit list?
viability z-score, knock-down alone: 0.161

With IKBKE, what does the deposit list?
viability z-score, knock-down alone: -2.84

What is on record for TPK1?
viability z-score, knock-down alone: -0.182

What did the screen give for PRKCA?
viability z-score, knock-down alone: 0.406

For CAMK2N1, how do the results read?
viability z-score, knock-down alone: -1.24

With MAP2K4, what does the deposit list?
viability z-score, knock-down alone: -0.363

With NME5, how do the results read?
viability z-score, knock-down alone: 1.21

What did the screen give for PRKAR1A?
viability z-score, knock-down alone: -0.388

For KRAS, what was measured?
viability z-score, knock-down alone: -1.99

Which result is listed for CIT?
viability z-score, knock-down alone: -0.406

For RPS6KC1, what was measured?
viability z-score, knock-down alone: 1.21

No new results follow: entries from further up.
TPK1: viability z-score, knock-down alone = -0.182
PRKCA: viability z-score, knock-down alone = 0.406
CAMK2N1: viability z-score, knock-down alone = -1.24
MAP2K4: viability z-score, knock-down alone = -0.363
NME5: viability z-score, knock-down alone = 1.21
PRKAR1A: viability z-score, knock-down alone = -0.388

Next records:
What did the screen give for NEK6?
viability z-score, knock-down alone: 1.21

For FXN, what was measured?
viability z-score, knock-down alone: 0.439

How did the screen score MAP4K3?
viability z-score, knock-down alone: 0.621

For DIS3, what was measured?
viability z-score, knock-down alone: 0.313

How did the screen score RAF1?
viability z-score, knock-down alone: -2.04

How did the screen score FGFR4?
viability z-score, knock-down alone: 0.434

Which result is listed for PNKP?
viability z-score, knock-down alone: 0.868

What is on record for DDR1?
viability z-score, knock-down alone: 0.377

With PDIK1L, what was measured?
viability z-score, knock-down alone: -1.2

What did the screen give for TSSK6?
viability z-score, knock-down alone: 0.174

How did the screen score STYK1?
viability z-score, knock-down alone: 0.169

With MKNK1, how do the results read?
viability z-score, knock-down alone: 1.21

Which result is listed for JAK2?
viability z-score, knock-down alone: 0.434

How did the screen score STK4?
viability z-score, knock-down alone: 1.07

What is on record for CDK5R1?
viability z-score, knock-down alone: -0.744

What is on record for SNRK?
viability z-score, knock-down alone: 0.1

Which result is listed for FBXW7?
viability z-score, knock-down alone: 0.717

For CNOT1, how do the results read?
viability z-score, knock-down alone: -0.928

For PRKG1, what was measured?
viability z-score, knock-down alone: 0.189

For FRK, what was measured?
viability z-score, knock-down alone: 0.678

For STK39, what was measured?
viability z-score, knock-down alone: -0.921

What is on record for NTRK3?
viability z-score, knock-down alone: 1.13

How did the screen score PRKCQ?
viability z-score, knock-down alone: -0.254
